This is a selection; strong and weak results do not stand in their true shares. Measured potencies and affinities stand elsewhere. The source made the active and inactive calls. How the calls were made is not given here.
Test: mammalian cell cytotoxicity, dose response, cytotoxicity control, plate reader, cherry-pick samples (AID 504397)
Settings: plate reader viability; at 35 µM (top of the series)

SMILES: Fc1ccc(C(c2ccc(F)cc2)N2CCN(C/C=C/c3ccccc3)CC2)cc1
- activity change, negative = toxicity: inactive: 10%

From PubChem BioAssay AID504397 (Broad Institute, 2011)
